Laboratory results published in PubChem BioAssay AID504327 (National Center for Advancing Translational Sciences (NCATS), 2011).
Hit rate of the full screen: of about 390,000 compounds, about 820 (0.21%) were called active. This list was built around the results that the source calls inconclusive (neither active nor inactive); the mix of calls is not that of the screen. Calls come from the whole dose curve; as a rule, active = well fitted inhibition curve with a large enough effect; inconclusive = small, poorly fitted or top-dose-only effect, or another doubt; inactive = no such curve, though single readings can be large or run the other way. Where the call is inconclusive, the potency comes from a doubtful curve fit.

Amino acid sequences for entries named in this document (tags omitted).
UniProt Q92830, whole entry, looked up: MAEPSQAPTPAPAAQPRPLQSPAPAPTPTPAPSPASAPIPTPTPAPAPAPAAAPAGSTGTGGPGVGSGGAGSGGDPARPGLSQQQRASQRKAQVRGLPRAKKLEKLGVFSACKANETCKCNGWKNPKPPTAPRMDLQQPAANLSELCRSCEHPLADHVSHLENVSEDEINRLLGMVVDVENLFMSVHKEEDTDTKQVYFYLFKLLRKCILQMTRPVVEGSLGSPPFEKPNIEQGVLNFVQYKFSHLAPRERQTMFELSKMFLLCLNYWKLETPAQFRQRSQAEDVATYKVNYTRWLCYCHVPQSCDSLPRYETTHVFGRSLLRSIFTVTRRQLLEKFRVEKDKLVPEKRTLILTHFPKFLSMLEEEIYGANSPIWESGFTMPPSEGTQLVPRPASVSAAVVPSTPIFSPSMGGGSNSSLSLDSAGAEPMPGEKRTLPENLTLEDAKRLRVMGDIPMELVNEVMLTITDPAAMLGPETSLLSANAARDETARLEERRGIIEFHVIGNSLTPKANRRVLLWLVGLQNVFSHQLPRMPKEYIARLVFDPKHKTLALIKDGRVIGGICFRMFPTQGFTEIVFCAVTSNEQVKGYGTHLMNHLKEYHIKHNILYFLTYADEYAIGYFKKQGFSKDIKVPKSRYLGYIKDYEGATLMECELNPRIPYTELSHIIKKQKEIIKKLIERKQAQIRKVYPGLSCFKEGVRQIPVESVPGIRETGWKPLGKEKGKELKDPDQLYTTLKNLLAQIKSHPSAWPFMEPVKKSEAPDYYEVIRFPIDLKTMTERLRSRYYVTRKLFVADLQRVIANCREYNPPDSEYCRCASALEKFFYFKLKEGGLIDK

molecular target: Histone acetyltransferase KAT2A (Homo sapiens) (UniProt Q92830); assay: qHTS Assay for Inhibitors of GCN5L2; settings: GCN5L2 HAT assay, ThioGlo1 CoA-SH fluorescence; activity change, negative = inhibition: at 58.9 µM (top of the series) unless noted
How it was run: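 ThioGlo1-coupled HAT assay: 20nM GCN5L2, 70uM acetyl-CoA, 75uM H3(1-25) peptide, pH 7.5. Fluorescence read at 340/540nm at start and after 20 min at room temperature.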
% is set by controls: 0 for no effect and ±100 for the full control effect; potency is the fitted concentration of half-maximal effect.

SMILES | Potency | activity change, negative = inhibition
CC(=O)N1c2ccccc2C2(O)N=C(C)SC12 (stereo not drawn) | active: 7.94 µM | 
Cn1cccc1/C=N/NC(=O)Cc1ccccc1 | inconclusive: 0.708 µM [inhibitor, full curve, poor fit] | 
COc1ccc(-c2noc(N3CCCC(C(=O)Nc4ccc(F)cc4F)C3)n2)cc1 (stereo not drawn) | inconclusive: 7.08 µM [inhibitor, single point] | 
COc1cc(/C=C2\SC(=S)N(CCC(=O)Nc3ccccc3)C2=O)cc(OC)c1OC | inactive | 
COc1ccc(NC(=O)C(=O)NCC2CCCN2S(=O)(=O)c2ccc(C)cc2)cc1 (stereo not drawn) | inactive | 
N#Cc1c(N)nc(Sc2ccc(Cl)cc2)c(C#N)c1-c1ccccc1Cl | inconclusive: 7.08 µM [inhibitor, single point] | 
COC(=O)C(C(=O)OC)=C(/C=C/N(C)C)N(C)C | inconclusive: 0.562 µM [inhibitor, full curve, poor fit] | 
COC(=O)c1ccc(C23CC4(C2)[C@H](CN(C)[C@@H]4c2ccccc2)C3c2ccc(C(F)(F)F)cc2)cc1 (stereo partly drawn) | inconclusive: 2.82 µM [inhibitor, partial curve] | 
Cc1ccc(Nc2cc(C)nc3ncnn23)c(Cl)c1 | inactive | 
CN(C)c1cccc(N(C)C)c1CNC(=O)NC(=O)c1c(F)cccc1F | inconclusive: 2.24 µM [inhibitor, full curve, poor fit] | 
O=C(O)c1ccc2nc(-c3cc4cc(F)ccc4oc3=O)[nH]c2c1 | inconclusive: 39.8 µM [inhibitor, single point] | 
O=C(Nc1ccccc1NC(=O)c1c(F)cccc1F)c1c(F)cccc1F | inconclusive: 22.4 µM [inhibitor, single point] | 
C=C(C)Cc1c(C)c(C#N)c2[nH]c3ccccc3n2c1=O | inconclusive: 39.8 µM [inhibitor, single point] | 
CCc1ccc(NC(=O)C(=O)NCC(c2cccnc2)N2CCN(C)CC2)cc1 (stereo not drawn) | inconclusive: 28.2 µM [inhibitor, single point] | 
O=C(COC(=O)C1CCN(S(=O)(=O)c2cccs2)CC1)c1cc2ccccc2o1 | inconclusive: 10 µM [inhibitor, partial curve] | 
COc1ccc(N2CCN(C(=O)c3ccc(NC(=O)C4=CSCCO4)cc3)CC2)cc1 | inactive | 
CC(=O)c1cccc(N=Nc2c(C)[nH]c3ccccc23)c1 | inactive | 
CCC(C)CC(C)CC(C)C(=O)/C=C(/O)C(C)CC(C)C/C=C/C(C)C(O)C(C)C(O)CC1CCC(C)(C)O1 (stereo not drawn) | inconclusive: 39.8 µM [inhibitor, single point] | 
C=CCn1c(SCc2ccc(C(=O)Nc3ccccc3)cc2)nnc1-c1ccccc1 | inconclusive: 6.31 µM [inhibitor, single point] | 
COc1cccc(C(C[N+](=O)[O-])c2c(C)[nH]n(-c3ccccc3)c2=O)c1 (stereo not drawn) | inactive | 
O=C(c1ccc(Cl)cc1)c1ccc(OCC(O)CN2CCOCC2)cc1 (stereo not drawn) | inactive | 
O=C(NCc1ccccc1)c1ccc2nc(-c3ccco3)c(-c3ccco3)nc2c1 |  | inconclusive: -61% [inhibitor]
O=C1CCC([N+](=O)[O-])C(c2ccc(Cl)cc2)N1 (stereo not drawn) | inconclusive: 7.08 µM [inhibitor, single point] | 

SMILES | Potency | activity change, negative = inhibition
COc1cccc(OC)c1C(=O)NC(=O)Nc1c(F)c(F)c(F)c(F)c1F | inconclusive: 0.631 µM [inhibitor, single point] | 
CC(C)n1nc(C(=O)Oc2cccc(Cl)c2Cl)c2ccccc2c1=O | inconclusive: 39.8 µM [inhibitor, single point] | 
CC1CCCN(c2csc3ccccc3c2=O)C1 (stereo not drawn) | inconclusive: 0.316 µM [inhibitor, full curve, poor fit] | 
Cc1ccc(/C=C/C(=O)O)cc1S(=O)(=O)Nc1ccccc1C(=O)O | inactive | 
C=C(C)COc1ccc(-c2nc(N)ncc2Oc2ccccc2OCC)c(O)c1 | inconclusive: 39.8 µM [inhibitor, single point] | 
O=C(Nc1cc(-c2ccccc2)nn1-c1ccccc1)c1ccccc1F | inconclusive: 28.2 µM [inhibitor, partial curve, poor fit] | 
O=C(Nc1ccc2ncccc2c1)c1ccccc1 | inactive | 
Cc1ccn2c(CNCc3cnn(C)c3)c(C(=O)N3CCCCCC3)nc2c1 | inconclusive: 0.708 µM [inhibitor, single point] | 
COc1cc2c(C(=O)N3CCN(c4ccc(C)cc4)C(C)C3)cn(CC(C)C)c(=O)c2cc1OC (stereo not drawn) | inactive | 
Cn1c(CCC(=O)Nc2cc(S(C)(=O)=O)ccc2Cl)nc2cc(S(=O)(=O)N3CCOCC3)ccc21 | inconclusive: 25.1 µM [inhibitor, partial curve] | 
CCN(CC)S(=O)(=O)c1cc(NC(=O)Cn2ncc(Cl)c(Cl)c2=O)ccc1C | inconclusive: 39.8 µM [inhibitor, partial curve, poor fit] | 
COc1ccccc1CNC(=O)Cn1c(-c2cccs2)cc2cc(F)ccc21 | inactive | 
O=C(N/N=C/c1cccc(OC2CSC2)c1)c1ccccc1O |  | inconclusive: -30% [inhibitor]
CCC(C)CCN1C(Nc2ccccc2)=NC[C@@H]1CC(C)C (stereo partly drawn) | inconclusive: 8.91 µM [inhibitor, partial curve] | 
COc1ccc(CN2COc3ccc4c(C)cc(=O)oc4c3C2)cc1 | inconclusive: 39.8 µM [inhibitor, single point] | 
COCc1ccc(C(=O)NC(C)c2cnn(-c3ccccc3C)c2C)o1 (stereo not drawn) | inconclusive: 35.5 µM [inhibitor, single point] | 
Cc1ccc(S(=O)(=O)CCC(=O)N(CCCN2CCOCC2)c2nc3ccccc3s2)cc1 | inactive | 
Oc1cccc(Nc2ccccc2)c1 | inconclusive: 39.8 µM [inhibitor, single point] | 
O=C(Nc1nc(-c2ccco2)c(-c2ccco2)s1)c1ccc(F)cc1F | inconclusive: 39.8 µM [inhibitor, single point] | 
COc1ccc(C(c2nnnn2Cc2ccccc2)N2CCN(c3nc4ccccc4s3)CC2)cc1OC (stereo not drawn) | inactive | 
O=C(Cc1cccs1)NC1CC(=O)N(c2ccccc2)C1 (stereo not drawn) | inactive | 
CN1CCC(=O)N([C@H](CO)Cc2ccccc2)CC1 | inconclusive: 0.708 µM [inhibitor, single point] | 
CCC(C)(C)NC(=O)C(c1ccc(C)cc1)N(Cc1cccs1)C(=O)c1ccc2c(c1)OCCO2 (stereo not drawn) | inconclusive: 12.6 µM [inhibitor, partial curve, poor fit] | 

Among those listed so far, four have a thiophene ring, fused or not.
SMILES | Potency | activity change, negative = inhibition
O=C(COC(=O)C1CCN(S(=O)(=O)c2cccs2)CC1)c1cc2ccccc2o1 | inconclusive: 10 µM [inhibitor, partial curve] | 
COc1ccccc1CNC(=O)Cn1c(-c2cccs2)cc2cc(F)ccc21 | inactive | 
O=C(Cc1cccs1)NC1CC(=O)N(c2ccccc2)C1 (stereo not drawn) | inactive | 
CCC(C)(C)NC(=O)C(c1ccc(C)cc1)N(Cc1cccs1)C(=O)c1ccc2c(c1)OCCO2 (stereo not drawn) | inconclusive: 12.6 µM [inhibitor, partial curve, poor fit] | 

Next entries.

SMILES | Potency | activity change, negative = inhibition
CCOC(=O)c1c(NC(=O)c2nn(CC)cc2Br)sc2c1CCCCC2 | inactive | 
O=C(c1ccc(=O)oc1)N1CCCc2ccccc21 | inconclusive: 28.2 µM [inhibitor, single point] | 
Cc1cccc(OCCCCn2nnc3sc4c(c3c2=O)CCC(C)C4)c1 (stereo not drawn) | inconclusive: 28.2 µM [inhibitor, single point] | 
CC(NC(=O)NC1CCCCC1)C(c1cccs1)N1CCN(c2ccccc2)CC1 (stereo not drawn) | inconclusive: 5.62 µM [inhibitor, partial curve] | 
CCOc1ccc(CCNC(=O)COC(=O)C2CCN(S(=O)(=O)c3ccc(C)c(C)c3)CC2)cc1OCC | inconclusive: 39.8 µM [inhibitor, single point] | 
O=C(O)CC/C(=C\c1cc([N+](=O)[O-])ccc1Cl)c1nc2ccccc2s1 | inactive | 
O=C(O)COc1ccc(/C=C/c2ccc3cccc([N+](=O)[O-])c3n2)cc1 | inactive | 
CC(=O)/C(C#N)=C1\NC(=O)C(Cc2cc(Cl)ccc2Cl)S1 (stereo not drawn) | inactive | 
FC(F)Oc1ccc(/C=N/c2c(-c3ccc(OC(F)F)cc3)nc3n2CCS3)cc1 | inactive | 
Cc1ccc(Nc2c(-c3ccco3)nc3ccccn23)cc1 | inconclusive: 20 µM [inhibitor, single point] | 
O=C(NC1CC1)C1CC(=O)N(c2cccc(Cl)c2)C1 (stereo not drawn) | inconclusive: 25.1 µM [inhibitor, single point] | 
C=CC[C@@H](CC(=O)N[C@@H](CO)Cc1ccccc1)C(=O)NC[C@H](OC(=O)[C@@H](CC=C)Cc1ccc(F)cc1)c1ccccc1 | inactive | 
CN1C(=O)/C(=C2\SC(=S)N(C(CCC(=O)O)C(=O)O)C2=O)c2ccccc21 (stereo not drawn) | inconclusive: 39.8 µM [inhibitor, single point] | 
COC(=O)c1cccc(-n2[nH]nnc2=S)c1 | inconclusive: 39.8 µM [inhibitor, single point] | 
CC1(C)Cc2c(c(N3CCOCC3)nc3sc4c(NCC5CCCO5)nnnc4c23)CS1 (stereo not drawn) | inconclusive: 0.178 µM [inhibitor, full curve, poor fit] | 
COc1cccc(NC(=O)c2c(C)nn(-c3ccccc3)c2Cl)c1 | inconclusive: 7.08 µM [inhibitor, single point] | 
CCC(C)(C)C1CCC(NC(=O)N2CCN(c3ccccc3O)CC2)CC1 (stereo not drawn) | inactive | 
COc1cccc(CNC(=O)CCC(=O)N2CC(C)Oc3ccccc32)c1OC (stereo not drawn) | inconclusive: 39.8 µM [inhibitor, partial curve, poor fit] | 
CC(=O)c1ccc(S(=O)(=O)Nc2cccc(-c3cn4c(n3)SCC4)c2)cc1 | inconclusive: 0.708 µM [inhibitor, single point] | 
Cc1ccc(C(=O)Nc2ccccc2-c2ccccc2)cc1[N+](=O)[O-] | inconclusive: 0.141 µM [inhibitor, partial curve, poor fit] | 
CCC(C)Sc1cccc(-c2nc3cnccn3c2NC2CCCCC2)c1 (stereo not drawn) | inconclusive: 20 µM [inhibitor, partial curve] | 
CC(=O)Nc1ccc(S(=O)(=O)N(C)CC(=O)Nc2cccc(S(=O)(=O)N3CCCC3)c2)cc1 | inconclusive: 39.8 µM [inhibitor, single point] | 
